Consider one substance from paper PMC8914340.

Amino acid sequences for entries named in this document (tags omitted). Residues count along the entry.
UniProt P01137, residues 30-390: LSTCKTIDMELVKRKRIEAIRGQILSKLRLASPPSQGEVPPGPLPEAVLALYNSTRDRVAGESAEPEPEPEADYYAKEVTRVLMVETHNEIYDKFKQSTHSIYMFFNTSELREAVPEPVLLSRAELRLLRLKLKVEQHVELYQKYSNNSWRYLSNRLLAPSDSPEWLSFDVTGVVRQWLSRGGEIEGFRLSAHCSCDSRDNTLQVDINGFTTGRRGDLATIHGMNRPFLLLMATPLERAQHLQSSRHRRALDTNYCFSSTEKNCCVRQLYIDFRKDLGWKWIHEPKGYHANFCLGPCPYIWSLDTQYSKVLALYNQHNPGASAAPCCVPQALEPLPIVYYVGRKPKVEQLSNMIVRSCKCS
UniProt P03470: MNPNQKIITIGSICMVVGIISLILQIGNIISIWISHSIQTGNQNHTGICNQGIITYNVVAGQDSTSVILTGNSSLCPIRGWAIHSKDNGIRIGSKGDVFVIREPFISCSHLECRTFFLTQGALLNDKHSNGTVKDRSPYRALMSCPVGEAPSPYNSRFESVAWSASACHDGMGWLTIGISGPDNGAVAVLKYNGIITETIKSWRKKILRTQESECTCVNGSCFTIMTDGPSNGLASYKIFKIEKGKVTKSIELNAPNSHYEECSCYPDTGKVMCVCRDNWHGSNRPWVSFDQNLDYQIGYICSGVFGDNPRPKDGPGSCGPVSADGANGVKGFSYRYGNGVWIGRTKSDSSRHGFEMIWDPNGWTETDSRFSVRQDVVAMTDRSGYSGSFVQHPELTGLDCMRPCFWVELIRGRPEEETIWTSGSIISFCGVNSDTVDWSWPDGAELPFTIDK

These are yes or no findings as the source states them, for the method shown. Binding seen in cells or lysates may run through a third protein. Some results given as binding are weak or reduced against the parent protein; the word gives no strength.

The target in the test is latent TGF-β (UniProt P01137). The test can be described thus: co-IP.

Turning to “Neuraminidase (NA) of influenza A virus A/WSN/1933 (H1N1) (from UniProt P03470 1-453)”, the binding entry is listed as “binds”.
